The values that follow come from paper doi:10.1101/334581.

The chains behind the UniProt entries cited, without tags or fusion partners.
UniProt Q6WWW4: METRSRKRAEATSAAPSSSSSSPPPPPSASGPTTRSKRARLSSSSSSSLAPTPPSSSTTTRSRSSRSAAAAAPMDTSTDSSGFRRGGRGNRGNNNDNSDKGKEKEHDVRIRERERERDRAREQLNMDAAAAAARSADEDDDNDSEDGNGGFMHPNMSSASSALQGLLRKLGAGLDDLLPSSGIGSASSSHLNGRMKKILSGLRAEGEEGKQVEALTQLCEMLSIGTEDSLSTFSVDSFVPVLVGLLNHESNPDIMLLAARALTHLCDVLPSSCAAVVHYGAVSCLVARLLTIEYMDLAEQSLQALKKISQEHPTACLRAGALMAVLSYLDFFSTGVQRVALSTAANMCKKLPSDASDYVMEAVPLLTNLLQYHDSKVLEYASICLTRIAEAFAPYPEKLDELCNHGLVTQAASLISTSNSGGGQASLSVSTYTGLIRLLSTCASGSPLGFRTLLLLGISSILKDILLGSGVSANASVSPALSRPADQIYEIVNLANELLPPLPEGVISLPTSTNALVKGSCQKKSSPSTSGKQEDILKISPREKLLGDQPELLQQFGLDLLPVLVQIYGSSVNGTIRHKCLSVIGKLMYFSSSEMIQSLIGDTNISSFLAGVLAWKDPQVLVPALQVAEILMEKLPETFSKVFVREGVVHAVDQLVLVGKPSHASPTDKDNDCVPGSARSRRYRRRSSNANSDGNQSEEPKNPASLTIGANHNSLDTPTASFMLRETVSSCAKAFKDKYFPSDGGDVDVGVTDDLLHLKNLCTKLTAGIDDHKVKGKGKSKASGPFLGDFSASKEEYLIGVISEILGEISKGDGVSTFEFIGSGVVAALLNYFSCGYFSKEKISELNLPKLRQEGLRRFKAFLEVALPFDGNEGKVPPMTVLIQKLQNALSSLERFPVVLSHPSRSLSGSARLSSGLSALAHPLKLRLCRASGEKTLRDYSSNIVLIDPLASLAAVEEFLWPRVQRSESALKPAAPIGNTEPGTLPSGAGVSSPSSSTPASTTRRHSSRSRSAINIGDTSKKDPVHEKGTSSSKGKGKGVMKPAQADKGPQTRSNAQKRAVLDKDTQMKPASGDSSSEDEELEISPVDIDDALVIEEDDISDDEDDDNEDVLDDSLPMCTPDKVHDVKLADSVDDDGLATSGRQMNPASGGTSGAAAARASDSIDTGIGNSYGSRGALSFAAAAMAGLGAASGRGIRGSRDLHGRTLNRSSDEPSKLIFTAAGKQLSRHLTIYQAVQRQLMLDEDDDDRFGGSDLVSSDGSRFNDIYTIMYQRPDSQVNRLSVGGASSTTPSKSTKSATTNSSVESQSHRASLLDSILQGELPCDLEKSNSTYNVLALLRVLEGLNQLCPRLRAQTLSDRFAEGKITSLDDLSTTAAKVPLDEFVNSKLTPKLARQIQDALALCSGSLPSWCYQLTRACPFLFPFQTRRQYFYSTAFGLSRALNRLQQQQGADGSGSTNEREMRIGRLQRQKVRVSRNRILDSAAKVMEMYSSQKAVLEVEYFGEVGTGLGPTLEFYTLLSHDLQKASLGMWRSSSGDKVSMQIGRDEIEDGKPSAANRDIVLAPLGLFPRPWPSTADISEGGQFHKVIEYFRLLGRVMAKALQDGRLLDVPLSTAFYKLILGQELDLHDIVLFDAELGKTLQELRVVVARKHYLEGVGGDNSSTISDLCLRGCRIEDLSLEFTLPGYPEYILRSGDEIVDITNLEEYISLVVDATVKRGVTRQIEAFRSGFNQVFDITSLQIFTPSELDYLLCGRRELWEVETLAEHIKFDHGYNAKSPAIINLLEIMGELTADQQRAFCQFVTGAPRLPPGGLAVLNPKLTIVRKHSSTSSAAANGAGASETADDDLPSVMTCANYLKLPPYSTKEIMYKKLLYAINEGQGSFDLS

The target of this experiment is 3FLAG-UPL3 (Arabidopsis UBIQUITIN PROTEIN LIGASE 3 with 3xFLAG) (Arabidopsis thaliana) (UniProt Q6WWW4). In words: co-IP.

Results are given in words; binding and its absence hold for the method and conditions named. In cells and extracts the contact can be indirect. Some entries that bind do so weakly or less than the wild type. Sequences can lack the tags named with a protein.

B1: LEC2-GFP (Arabidopsis LEAFY COTYLEDON 2 fused to GFP) (protein, UniProt Q1PFR7 1-363)
chain: MDNFLPFPSSNANSVQELSMDPNNNRSHFTTVPTYDHHQAQPHHFLPPFSYPVEQMAAVMNPQPVYLSECYPQIPVTQTGSEFGSLVGNPCLWQERGGFLDPRMTKMARINRKNAMMRSRNNSSPNSSPSELVDSKRQLMMLNLKNNVQISDKKDSYQQSTFDNKKLRVLCEKELKNSDVGSLGRIVLPKRDAEANLPKLSDKEGIVVQMRDVFSMQSWSFKYKFWSNNKSRMYVLENTGEFVKQNGAEIGDFLTIYEDESKNLYFAMNGNSGKQNEGRENESRERNHYEEAMLDYIPRDEEEASIAMLIGNLNDHYPIPNDLMDLTTDLQHHQATSSSMPPEDHAYVGSSDDQVSFNDFEWW
As to B1, the binding entry was “binds”.
